PubChem BioAssay AID1159578, Peter MacCallum Cancer Centre | 2015
In all, the deposit lists about 18,000 reagents; shown is a part drawn at random. About 1,030 of all reagents (5.7%) count as active. 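Inactive calls also include pools with fewer than 3300 nuclei, whose migration was not assessed.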 Raw values vary from plate to plate and are shown uncorrected.

Purpose: 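Knock-downs that alter how fast lymphatic endothelial cells migrate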 (primary screen)
Cells: human lymphatic endothelial cells
Knock-down reagent: siRNA pool against human genes, 40 nM
Timing: 48 h after transfection
Read-out: 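Cells stained with dye and imaged after a scratch; covered wound area and nuclei counted, duplicates averaged, migration set against mock wells and turned into a robust z-score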
Reading the numbers: migration robust z-score: higher = faster migration into the scratch; migration relative to mock: higher = more scratch area covered than mock; nuclei per well: higher = more cells in the well
Rule for the call: 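Migration changed when robust z exceeds 2 or falls below -2 and mean nuclei number is at least 3300; otherwise not called changed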
Meaning of the calls: active = migration changed; inactive = no migration change, or too few cells

target | migration robust z-score | migration class with cell-count check | migration relative to mock | nuclei per well, duplicate mean | Call
MSRA | 0.83 | migration z between -2 and 2; enough cells | 0.96 | 6157 | inactive
CLSTN2 | -1.19 | migration z between -2 and 2; enough cells | 0.57 | 6862 | inactive
SETD6 | -0.56 | migration z between -2 and 2; enough cells | 0.74 | 6180 | inactive
ZBTB6 | 0.71 | migration z between -2 and 2; enough cells | 1.06 | 5766 | inactive
PIK3R2 | -0.68 | migration z between -2 and 2; enough cells | 0.68 | 4010 | inactive
SS18 | 1.22 | migration z between -2 and 2; enough cells | 1.2 | 6691 | inactive
PGRMC2 | -0.62 | migration z between -2 and 2; enough cells | 0.68 | 6698 | inactive
CCNG1 | 0.62 | migration z between -2 and 2; enough cells | 1.04 | 6736 | inactive
TMEM106B | 0.19 | migration z between -2 and 2; enough cells | 0.94 | 6954 | inactive
REC8 | 2.13 | migration z above 2; enough cells | 1.43 | 6462 | active

2 of these entries in another layout:
CCNG1
- migration robust z-score: 0.62
- migration class with cell-count check: migration z between -2 and 2; enough cells
- migration relative to mock: 1.04
- nuclei per well, duplicate mean: 6736
- Call: inactive

TMEM106B
- migration robust z-score: 0.19
- migration class with cell-count check: migration z between -2 and 2; enough cells
- migration relative to mock: 0.94
- nuclei per well, duplicate mean: 6954
- Call: inactive

The list goes on:
target | migration robust z-score | migration class with cell-count check | migration relative to mock | nuclei per well, duplicate mean | Call
ZNF33B | -0.69 | migration z between -2 and 2; enough cells | 0.7 | 4444 | inactive
GNG4 | 0.13 | migration z between -2 and 2; enough cells | 0.83 | 6390 | inactive
FOXP3 | 0.1 | migration z between -2 and 2; enough cells | 0.82 | 5769 | inactive
IMPDH1 | 0.73 | migration z between -2 and 2; enough cells | 0.94 | 6086 | inactive
STX6 | -0.9 | migration z between -2 and 2; enough cells | 0.65 | 4277 | inactive
BCLAF1 | -0.42 | migration z between -2 and 2; enough cells | 0.73 | 4876 | inactive
ADRA1D | 0.55 | migration z between -2 and 2; enough cells | 0.91 | 5445 | inactive
MRPL14 | 0.02 | migration z between -2 and 2; enough cells | 0.89 | 6444 | inactive
TSPAN32 | -0.06 | migration z between -2 and 2; enough cells | 0.87 | 6155 | inactive
OAT | 0.13 | migration z between -2 and 2; enough cells | 0.83 | 5964 | inactive
IFIT1 | 0.2 | migration z between -2 and 2; enough cells | 0.94 | 5618 | inactive
BEX4 | -0.73 | migration z between -2 and 2; enough cells | 0.7 | 5799 | inactive
CTSV | 0.62 | migration z between -2 and 2; enough cells | 0.92 | 6167 | inactive
